Measurements published in US9127041 (dated 2015).

Experiment: peptide synthesis
Settings: late stage modification step
[1] = calculated from HPLC area intensity

Substance	step yield [%]	also measured
Ac-Val Tyr Ala Ala-NHC(NH)NHAc		step yield [1]: 80%
Ac-Val Tyr Ala Ser Cys(C(S)OPh)Gly-OH	92	
Ac-Val Tyr Ala Lys(Boc)-NHC (NH)NHAc		step yield [1]: 70%
Ac-Val Tyr Ala Phe Cys (C(S)OPh) Gly-OH	84	
Ac-Val Tyr Ala Lys Cys (C(S)OPh)Gly-OH	94	
Ac-Val Tyr Ala Leu Cys(C(S)OPh)Gly-OH	92	
BocHN-Leu Ile Cys(Acm)Asp Ser Arg Val Leu Glu Arg Tyr Leu Leu Glu Ala Lys(Boc)Glu Ala Glu Asn Ile Thr Thr Gly-SCH2CH2SO3		step yield (on HPLC): unknown yield, about 70% on HPLC
Ac-Val Tyr Ala Ala Cys(C(S)OPh)Gly-OH	88	
Ac-Val Tyr Ala Ser-NHC(NH)NHAc		step yield (from HPLC area intensity): 70%
